Results reported in patent US20170226208A1 (SUPPREMOL, published 2017).
No constants are given. Whether binding was seen depends on the method and setting. Binding seen in cells or lysates may run through a third protein. Some results given as binding are weak or reduced against the parent protein; the word gives no strength.

The chains behind the UniProt entries cited, without tags or fusion partners. Residues count along the entry.
UniProt P31994, residues 43-310: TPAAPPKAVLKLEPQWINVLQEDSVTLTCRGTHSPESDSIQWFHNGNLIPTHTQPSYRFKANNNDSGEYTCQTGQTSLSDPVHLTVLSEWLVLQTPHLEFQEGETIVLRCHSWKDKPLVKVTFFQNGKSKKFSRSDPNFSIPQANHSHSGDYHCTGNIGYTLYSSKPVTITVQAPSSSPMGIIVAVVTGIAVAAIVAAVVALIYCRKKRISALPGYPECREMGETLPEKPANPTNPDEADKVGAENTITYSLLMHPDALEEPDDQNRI

Biological target: FcγRIIB precipitated from lysates of stimulated Daudi cells (human) (UniProt P31994)
Assay: co-immunoprecipitation from Daudi cell lysates with 2B6, Western blot for phospho-SHIP-1

- binding: binds
B1: SHIP-1 (enzyme, human, UniProt Q92835 1-1189, looked up)
chain: MVPCWNHGNITRSKAEELLSRTGKDGSFLVRASESISRAYALCVLYRNCVYTYRILPNEDDKFTVQASEGVSMRFFTKLDQLIEFYKKENMGLVTHLQYPVPLEEEDTGDDPEEDTVESVVSPPELPPRNIPLTASSCEAKEVPFSNENPRATETSRPSLSETLFQRLQSMDTSGLPEEHLKAIQDYLSTQLAQDSEFVKTGSSSLPHLKKLTTLLCKELYGEVIRTLPSLESLQRLFDQQLSPGLRPRPQVPGEANPINMVSKLSQLTSLLSSIEDKVKALLHEGPESPHRPSLIPPVTFEVKAESLGIPQKMQLKVDVESGKLIIKKSKDGSEDKFYSHKKILQLIKSQKFLNKLVILVETEKEKILRKEYVFADSKKREGFCQLLQQMKNKHSEQPEPDMITIFIGTWNMGNAPPPKKITSWFLSKGQGKTRDDSADYIPHDIYVIGTQEDPLSEKEWLEILKHSLQEITSVTFKTVAIHTLWNIRIVVLAKPEHENRISHICTDNVKTGIANTLGNKGAVGVSFMFNGTSLGFVNSHLTSGSEKKLRRNQNYMNILRFLALGDKKLSPFNITHRFTHLFWFGDLNYRVDLPTWEAETIIQKIKQQQYADLLSHDQLLTERREQKVFLHFEEEEITFAPTYRFERLTRDKYAYTKQKATGMKYNLPSWCDRVLWKSYPLVHVVCQSYGSTSDIMTSDHSPVFATFEAGVTSQFVSKNGPGTVDSQGQIEFLRCYATLKTKSQTKFYLEFHSSCLESFVKSQEGENEEGSEGELVVKFGETLPKLKPIISDPEYLLDQHILISIKSSDSDESYGEGCIALRLEATETQLPIYTPLTHHGELTGHFQGEIKLQTSQGKTREKLYDFVKTERDESSGPKTLKSLTSHDPMKQWEVTSRAPPCSGSSITEIINPNYMGVGPFGPPMPLHVKQTLSPDQQPTAWSYDQPPKDSPLGPCRGESPPTPPGQPPISPKKFLPSTANRGLPPRTQESRPSDLGKNAGDTLPQEDLPLTKPEMFENPLYGSLSSFPKPAPRKDQESPKMPRKEPPPCPEPGILSPSIVLTKAQEADRGEGPGKQVPAPRLRSFTCSSSAEGRAAGGDKSQGKPKTPVSSQAPVPAKRPIKPSRSEINQQTPPTPTPRPPLPVKSPAVLHLQHSKGRDYRDNTELPHHGKHRPEEGPPGPLGRTAMQ
modifications: phosphorylated (phospho-SHIP-1)
